Test results from publication PMC8541566.
These are yes or no findings as the source states them, for the method shown. In cells and extracts the contact can be indirect. Some results given as binding are weak or reduced against the parent protein; the word gives no strength. Where a sequence is shown, tags or fusion partners need not be part of it.

Experiments:
Test in all cases: co-IP; GFP-tagged Hrr25 or GFP precipitated with GFP-trap agarose beads from yeast extracts (100 µg protein, 4 °C, 2 h; washes 50 mM Tris-HCl pH 7.5, 150 mM NaCl, 0.5% Triton); immunoblot for Pkc1-HA; cells untreated, treated with 250 mM HU for 4 h or with UV 150 J/m^2; also in sml1Δ mec1Δ tel1Δ cells
[1] = target: T1, Hrr25-Δ404-GFP (C-terminally truncated Hrr25 lacking residues 405-494, from plasmid p3567) (S. cerevisiae) (UniProt P29295)
T1 sequence: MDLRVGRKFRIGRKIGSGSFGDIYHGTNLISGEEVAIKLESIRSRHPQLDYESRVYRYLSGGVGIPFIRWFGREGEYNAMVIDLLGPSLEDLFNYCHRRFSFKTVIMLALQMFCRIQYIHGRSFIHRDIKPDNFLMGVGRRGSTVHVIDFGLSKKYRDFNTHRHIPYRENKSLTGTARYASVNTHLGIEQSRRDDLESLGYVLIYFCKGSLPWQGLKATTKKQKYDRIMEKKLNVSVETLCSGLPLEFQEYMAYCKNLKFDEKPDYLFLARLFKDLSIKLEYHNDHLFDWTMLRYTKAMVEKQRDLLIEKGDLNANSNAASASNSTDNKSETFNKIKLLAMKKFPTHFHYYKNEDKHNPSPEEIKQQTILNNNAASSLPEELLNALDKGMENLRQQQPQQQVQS

[2] = target: T2, GFP-tagged Hrr25 from plasmid p3357 (pUG36-HRR25-GFP), MET25 promoter (S. cerevisiae) (UniProt P29295)
T2 sequence: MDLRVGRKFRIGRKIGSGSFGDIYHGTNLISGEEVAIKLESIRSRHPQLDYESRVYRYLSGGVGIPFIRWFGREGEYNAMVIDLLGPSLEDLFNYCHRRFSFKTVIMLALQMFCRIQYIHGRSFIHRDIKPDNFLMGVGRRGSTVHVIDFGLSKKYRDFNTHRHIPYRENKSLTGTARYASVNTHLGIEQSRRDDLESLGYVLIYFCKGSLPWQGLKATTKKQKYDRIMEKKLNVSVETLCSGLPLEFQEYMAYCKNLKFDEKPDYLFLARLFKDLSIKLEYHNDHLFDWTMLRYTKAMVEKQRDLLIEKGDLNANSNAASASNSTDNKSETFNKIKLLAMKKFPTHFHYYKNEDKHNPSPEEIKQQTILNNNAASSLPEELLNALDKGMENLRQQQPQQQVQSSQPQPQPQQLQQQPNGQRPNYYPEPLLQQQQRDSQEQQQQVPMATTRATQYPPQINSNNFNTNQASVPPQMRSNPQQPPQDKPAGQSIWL

[3] = target: T3, Hrr25-GFP from plasmid p3562 (pRS423-HRR25-GFP), own promoter (S. cerevisiae) (UniProt P29295)
T3 sequence: T2 sequence

- binding [1]: binds
- binding [2]: binds
- binding [3]: binds
B1: Pkc1-HA (protein kinase C 1, HA-tagged, from plasmid p813 YEp351-PKC1-HA) (enzyme, UniProt P24583 1-1151)
chain: MSFSQLEQNIKKKIAVEENIIRGASALKKKTSNVMVIQKCNTNIREARQNLEYLEDSLKKLRLKTAQQSQGENGSEDNERCNSKEYGFLSTKSPNEHIFSRLDLVKYDCPSLAQRIQYMLQQLEFKLQVEKQYQEANTKLTKLYQIDGDQRSSSAAEGGAMESKYRIQMLNKALKKYQAINVDFDQFKHQPNDIMDNQQPKFRRKQLTGVLTIGITAARDVDHIQSPMFARKPESYVTIKIDDTIKARTKPSRNDRWSEDFQIPVEKGNEIEITVYDKVNDSLIPVAIMWLLLSDIAEEIRKKKAGQTNEQQGWVNASNINGGSSLASEEGSTLTSTYSNSAIQSTSAKNVQGENTSTSQISTNSWFVLEPSGQILLTLGFHKSSQIERKQLMGGLHRHGAIINRKEEIFEQHGHHFVQKSFYNIMCCAYCGDFLRYTGFQCQDCKFLCHKKCYTNVVTKCIAKTSTDTDPDEAKLNHRIPHRFLPTSNRGTKWCCHCGYILPWGRHKVRKCSECGIMCHAQCAHLVPDFCGMSMEMANKILKTIQDTKRNQEKKKRTVPSAQLGSSIGTANGSDLSPSKLAERANAPLPPQPRKHDKTPSPQKVGRDSPTKQHDPIIDKRISLQTHGREKLNKFIDENEAYLNFTEGAQQTAEFSSPEKTLDPTSNRRSLGLTDLSIEHSQTWESKDDLMRDELELWKAQREEMELEIKQDSGEIQEDLEVDHIDLETKQKLDWENKNDFREADLTIDSTHTNPFRDMNSETFQIEQDHASKEVLQETVSLAPTSTHASRTTDQQSPQKSQTSTSAKHKKRAAKRRKVSLDNFVLLKVLGKGNFGKVILSKSKNTDRLCAIKVLKKDNIIQNHDIESARAEKKVFLLATKTKHPFLTNLYCSFQTENRIYFAMEFIGGGDLMWHVQNQRLSVRRAKFYAAEVLLALKYFHDNGVIYRDLKLENILLTPEGHIKIADYGLCKDEMWYGNRTSTFCGTPEFMAPEILKEQEYTKAVDWWAFGVLLYQMLLCQSPFSGDDEDEVFNAILTDEPLYPIDMAGEIVQIFQGLLTKDPEKRLGAGPRDADEVMEEPFFRNINFDDILNLRVKPPYIPEIKSPEDTSYFEQEFTSAPPTLTPLPSVLTTSQQEEFRGFSFMPDDLDL
